Some results were stated once for a whole list of compounds, not compound by compound.
Each compound was assayed on Phytophthora infestani (assay: Phytophthora test (tomato)/protective). Settings: protective spray, 250 ppm active substance, evaluation 3 days after inoculation.
Format: in vivo

Structure (SMILES) | efficacy
Cn1c(=O)c2sc3c(=O)n(C)c(=O)c3sc2c1=O [Compound 1, 2,6-Dimethyl-1H,5H-[1,4]dithiino[2,3-c:5,6-c′]dipyrrole-1,3,5,7(2H,6H)-tetrone] | ≥ 70%
CCn1c(=O)c2sc3c(=O)n(CC)c(=O)c3sc2c1=O [Compound 2, 2,6-Diethyl-1H,5H-[1,4]dithiino[2,3-c:5,6-c′]dipyrrole-1,3,5,7(2H,6H)-tetrone] | ≥ 70%
CCCn1c(=O)c2sc3c(=O)n(CCC)c(=O)c3sc2c1=O [Compound 3, 2,6-Dipropyl-1H,5H-[1,4]dithiino[2,3-c:5,6-c′]dipyrrole-1,3,5,7(2H,6H)-tetrone] | ≥ 70%

Source: patent publication US8865759B2, “Use of dithiine-tetracarboximides for controlling phytopathogenic fungi” (priority 2008, dated 2014)
